# ± gives the standard deviation of the averaged measurements. This is a selection; strong and weak results do not stand in their true shares.
# Key:
# Test in all cases: NP40-soluble protein abundance relative to vehicle (solubility fold change) (ratio); higher = more soluble protein in presence of AMP-PNP
# NKIRAS1 = molecular target: T1, NKIRAS1 (UniProt Q9NYS0)
# T1 sequence (whole entry): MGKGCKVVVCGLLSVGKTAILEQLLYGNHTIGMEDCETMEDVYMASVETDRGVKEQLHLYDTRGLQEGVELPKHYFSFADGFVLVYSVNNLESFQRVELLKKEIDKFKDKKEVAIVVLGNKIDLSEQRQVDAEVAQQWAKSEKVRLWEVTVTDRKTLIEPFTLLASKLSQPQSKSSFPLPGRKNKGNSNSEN
# Summary of the method: (§1)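 Values are fold changes against the detergent-processed vehicle, based on vsn-normalised intensities. Jurkat crude lysate was treated at eight concentrations from 0.1 to 10 mM (10 min at room temperature, then 3 min at 37 °C), solubilised with 0.8% NP40 and benzonase, ultracentrifuged and analysed by TMT-labelled LC-MS/MS over three independent experiments.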
# RBM12 = molecular target: T2, RBM12 (UniProt Q9NTZ6)
# T2 sequence (whole entry): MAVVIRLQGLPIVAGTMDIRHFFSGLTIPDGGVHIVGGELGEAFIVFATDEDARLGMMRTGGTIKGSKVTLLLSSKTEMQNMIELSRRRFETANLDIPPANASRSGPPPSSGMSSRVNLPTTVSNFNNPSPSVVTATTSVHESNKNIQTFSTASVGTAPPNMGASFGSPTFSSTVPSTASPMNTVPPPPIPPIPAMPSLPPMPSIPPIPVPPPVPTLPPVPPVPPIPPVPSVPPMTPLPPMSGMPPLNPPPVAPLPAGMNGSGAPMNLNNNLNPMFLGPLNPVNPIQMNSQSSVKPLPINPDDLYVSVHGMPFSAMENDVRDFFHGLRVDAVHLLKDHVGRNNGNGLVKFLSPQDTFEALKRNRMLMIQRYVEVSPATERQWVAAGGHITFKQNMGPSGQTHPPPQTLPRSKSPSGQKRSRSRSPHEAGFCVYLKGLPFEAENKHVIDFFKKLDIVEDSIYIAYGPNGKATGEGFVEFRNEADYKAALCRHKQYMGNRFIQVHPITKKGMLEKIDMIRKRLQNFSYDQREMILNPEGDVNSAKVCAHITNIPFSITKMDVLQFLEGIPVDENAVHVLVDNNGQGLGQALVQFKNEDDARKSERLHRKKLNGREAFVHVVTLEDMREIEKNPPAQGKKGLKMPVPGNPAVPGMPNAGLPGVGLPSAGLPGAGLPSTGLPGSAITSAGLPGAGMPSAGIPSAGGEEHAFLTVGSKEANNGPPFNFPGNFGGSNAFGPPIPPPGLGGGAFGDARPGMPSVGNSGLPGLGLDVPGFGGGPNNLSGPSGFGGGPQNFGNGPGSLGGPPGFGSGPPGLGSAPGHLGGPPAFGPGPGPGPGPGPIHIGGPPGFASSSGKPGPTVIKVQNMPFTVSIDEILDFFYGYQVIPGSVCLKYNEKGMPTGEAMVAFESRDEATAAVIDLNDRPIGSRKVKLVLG
# Summary of the method: as §1
# SACM1L = molecular target: T3, SACM1L (UniProt Q9NTJ5)
# T3 sequence (whole entry): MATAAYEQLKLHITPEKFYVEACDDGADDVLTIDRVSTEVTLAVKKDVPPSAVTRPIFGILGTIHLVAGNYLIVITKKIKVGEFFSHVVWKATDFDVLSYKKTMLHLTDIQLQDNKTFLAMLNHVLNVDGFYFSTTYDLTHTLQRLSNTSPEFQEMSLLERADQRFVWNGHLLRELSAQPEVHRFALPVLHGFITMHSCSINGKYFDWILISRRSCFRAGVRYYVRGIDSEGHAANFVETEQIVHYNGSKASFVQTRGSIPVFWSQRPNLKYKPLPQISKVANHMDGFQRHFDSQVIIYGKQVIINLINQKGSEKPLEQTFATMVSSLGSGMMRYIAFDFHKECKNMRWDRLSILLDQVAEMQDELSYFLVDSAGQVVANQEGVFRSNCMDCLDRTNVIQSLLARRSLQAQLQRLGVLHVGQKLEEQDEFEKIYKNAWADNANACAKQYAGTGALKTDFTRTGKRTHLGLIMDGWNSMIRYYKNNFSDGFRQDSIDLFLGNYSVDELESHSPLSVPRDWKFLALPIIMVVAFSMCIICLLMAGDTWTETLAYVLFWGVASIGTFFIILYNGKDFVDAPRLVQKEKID
# Summary of the method: as §1
# TFIP11 = molecular target: T4, TFIP11 (UniProt Q9UBB9)
# T4 sequence (whole entry): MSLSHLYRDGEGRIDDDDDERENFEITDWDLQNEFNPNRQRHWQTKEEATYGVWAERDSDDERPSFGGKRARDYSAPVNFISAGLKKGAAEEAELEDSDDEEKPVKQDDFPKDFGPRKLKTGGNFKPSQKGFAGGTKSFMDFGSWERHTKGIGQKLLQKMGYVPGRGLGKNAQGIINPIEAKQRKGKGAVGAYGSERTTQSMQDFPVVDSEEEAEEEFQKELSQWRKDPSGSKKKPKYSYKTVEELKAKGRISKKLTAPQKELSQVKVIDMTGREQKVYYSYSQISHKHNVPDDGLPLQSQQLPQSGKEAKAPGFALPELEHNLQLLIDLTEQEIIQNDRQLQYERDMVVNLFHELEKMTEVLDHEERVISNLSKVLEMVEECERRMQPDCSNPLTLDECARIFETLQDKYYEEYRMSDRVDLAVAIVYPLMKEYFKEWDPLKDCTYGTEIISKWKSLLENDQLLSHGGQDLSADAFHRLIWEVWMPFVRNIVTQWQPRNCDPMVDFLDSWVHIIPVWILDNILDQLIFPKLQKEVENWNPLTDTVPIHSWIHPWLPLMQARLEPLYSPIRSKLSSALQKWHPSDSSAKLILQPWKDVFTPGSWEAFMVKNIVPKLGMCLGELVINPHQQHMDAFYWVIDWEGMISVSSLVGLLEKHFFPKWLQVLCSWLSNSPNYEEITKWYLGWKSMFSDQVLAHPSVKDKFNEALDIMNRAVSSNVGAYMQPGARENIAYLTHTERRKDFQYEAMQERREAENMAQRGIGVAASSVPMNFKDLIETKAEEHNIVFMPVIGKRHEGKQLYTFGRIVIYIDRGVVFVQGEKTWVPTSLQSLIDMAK
# Summary of the method: as §1
# [1] = molecular target: T5, UniProt Q9NQ86-4|E9PBG3 and related entries
# T5 sequence (whole entry): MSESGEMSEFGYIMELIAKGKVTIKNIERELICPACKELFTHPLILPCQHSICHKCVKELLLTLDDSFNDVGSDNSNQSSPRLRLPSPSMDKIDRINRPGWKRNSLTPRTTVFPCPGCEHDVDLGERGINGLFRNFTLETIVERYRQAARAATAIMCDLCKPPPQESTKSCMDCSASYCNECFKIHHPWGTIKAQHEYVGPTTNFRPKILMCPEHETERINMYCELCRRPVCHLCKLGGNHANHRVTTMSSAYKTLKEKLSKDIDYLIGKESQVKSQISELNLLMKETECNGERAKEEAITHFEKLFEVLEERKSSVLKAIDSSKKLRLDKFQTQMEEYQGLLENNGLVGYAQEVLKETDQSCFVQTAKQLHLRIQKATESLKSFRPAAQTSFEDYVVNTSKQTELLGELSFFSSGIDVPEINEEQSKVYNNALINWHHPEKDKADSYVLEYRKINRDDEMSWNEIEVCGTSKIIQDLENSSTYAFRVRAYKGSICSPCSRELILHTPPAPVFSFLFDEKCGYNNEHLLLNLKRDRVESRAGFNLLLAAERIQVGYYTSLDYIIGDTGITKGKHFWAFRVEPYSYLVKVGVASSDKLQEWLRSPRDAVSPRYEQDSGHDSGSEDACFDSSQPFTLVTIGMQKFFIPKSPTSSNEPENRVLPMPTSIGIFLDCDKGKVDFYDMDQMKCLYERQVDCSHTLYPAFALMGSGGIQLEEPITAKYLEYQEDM
# Summary of the method: as §1
smiles,measurement,setting,value
Nc1ncnc2c1ncn2[C@@H]1O[C@H](COP(=O)(O)OP(=O)(O)NP(=O)(O)O)[C@@H](O)[C@H]1O [adenylyl imidodiphosphate],NP40-soluble protein abundance,NKIRAS1; concentration: 2mM,1.025 ± 0.0079
same,NP40-soluble protein abundance,NKIRAS1; concentration: 4mM,0.981 ± 0.024
same,NP40-soluble protein abundance,NKIRAS1; concentration: 6mM,0.988 ± 0.027
same,NP40-soluble protein abundance,NKIRAS1; concentration: 8mM,1 ± 0.018
same,NP40-soluble protein abundance,NKIRAS1; concentration: 10mM,0.9796 ± 0.0011
same,NP40-soluble protein abundance,RBM12; concentration: 1mM,0.959 ± 0.021
same,NP40-soluble protein abundance,RBM12; concentration: 2mM,0.976 ± 0.048
same,NP40-soluble protein abundance,RBM12; concentration: 4mM,0.976 ± 0.028
same,NP40-soluble protein abundance,RBM12; concentration: 6mM,1.01 ± 0.036
same,NP40-soluble protein abundance,RBM12; concentration: 8mM,0.986 ± 0.036
same,NP40-soluble protein abundance,RBM12; concentration: 10mM,1.011 ± 0.0088
same,NP40-soluble protein abundance,SACM1L; concentration: 1mM,1.01 ± 0.049
same,NP40-soluble protein abundance,SACM1L; concentration: 2mM,0.916 ± 0.062
same,NP40-soluble protein abundance,SACM1L; concentration: 4mM,0.978 ± 0.056
same,NP40-soluble protein abundance,SACM1L; concentration: 6mM,0.937 ± 0.032
same,NP40-soluble protein abundance,SACM1L; concentration: 8mM,0.966 ± 0.035
same,NP40-soluble protein abundance,SACM1L; concentration: 10mM,0.91 ± 0.039
same,NP40-soluble protein abundance,TFIP11; concentration: 1mM,1.01 ± 0.028
same,NP40-soluble protein abundance,TFIP11; concentration: 2mM,1.01 ± 0.033
same,NP40-soluble protein abundance,TFIP11; concentration: 4mM,1.07 ± 0.042
same,NP40-soluble protein abundance,TFIP11; concentration: 6mM,1.08 ± 0.05
same,NP40-soluble protein abundance,TFIP11; concentration: 8mM,1.09 ± 0.015
same,NP40-soluble protein abundance,TFIP11; concentration: 10mM,1.13 ± 0.039
same,NP40-soluble protein abundance,[1]; concentration: 1mM,0.952 ± 0.04
same,NP40-soluble protein abundance,[1]; concentration: 2mM,0.976 ± 0.047
same,NP40-soluble protein abundance,[1]; concentration: 4mM,0.994 ± 0.042

# Reformatted tab-delimited: part of the list above.
smiles	measurement	setting	value
Nc1ncnc2c1ncn2[C@@H]1O[C@H](COP(=O)(O)OP(=O)(O)NP(=O)(O)O)[C@@H](O)[C@H]1O [adenylyl imidodiphosphate]	NP40-soluble protein abundance	SACM1L; concentration: 8mM	0.966 ± 0.035
same	NP40-soluble protein abundance	SACM1L; concentration: 10mM	0.91 ± 0.039

# From the supplement of paper PMC6411743
